From the supplement of paper PMC10849652 come the findings set out here.

Protein sequences, listed by entry. Tags and fused reporters are not part of them. Lines headed by an entry give the natural chain unless they say otherwise; changes in a name come on top.
UniProt Q5T8P6: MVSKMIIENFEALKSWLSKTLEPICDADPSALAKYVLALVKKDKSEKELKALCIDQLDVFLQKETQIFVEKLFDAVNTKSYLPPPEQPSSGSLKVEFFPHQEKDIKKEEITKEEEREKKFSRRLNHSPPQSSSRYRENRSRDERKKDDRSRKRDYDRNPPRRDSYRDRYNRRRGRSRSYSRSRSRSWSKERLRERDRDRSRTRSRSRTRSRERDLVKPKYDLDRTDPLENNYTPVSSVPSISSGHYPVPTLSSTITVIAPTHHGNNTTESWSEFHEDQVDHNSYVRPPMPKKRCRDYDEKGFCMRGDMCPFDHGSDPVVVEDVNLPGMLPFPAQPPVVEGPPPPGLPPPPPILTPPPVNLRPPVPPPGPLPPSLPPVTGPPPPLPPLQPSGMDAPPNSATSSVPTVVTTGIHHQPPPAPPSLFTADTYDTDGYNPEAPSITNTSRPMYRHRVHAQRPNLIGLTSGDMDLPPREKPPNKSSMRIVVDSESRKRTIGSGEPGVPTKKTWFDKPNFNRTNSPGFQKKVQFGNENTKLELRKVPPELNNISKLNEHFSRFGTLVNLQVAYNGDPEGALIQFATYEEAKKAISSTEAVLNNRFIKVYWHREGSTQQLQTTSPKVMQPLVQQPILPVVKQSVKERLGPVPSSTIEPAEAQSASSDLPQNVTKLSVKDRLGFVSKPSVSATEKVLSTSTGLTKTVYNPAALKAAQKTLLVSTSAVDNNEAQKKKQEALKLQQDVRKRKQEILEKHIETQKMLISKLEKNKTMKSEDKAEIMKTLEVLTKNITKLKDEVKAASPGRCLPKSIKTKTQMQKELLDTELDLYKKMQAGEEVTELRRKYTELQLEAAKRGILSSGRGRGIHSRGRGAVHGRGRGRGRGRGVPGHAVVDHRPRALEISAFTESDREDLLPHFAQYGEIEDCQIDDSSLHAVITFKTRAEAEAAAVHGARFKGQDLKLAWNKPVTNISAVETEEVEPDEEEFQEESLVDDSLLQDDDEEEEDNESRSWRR
UniProt Q96EV2: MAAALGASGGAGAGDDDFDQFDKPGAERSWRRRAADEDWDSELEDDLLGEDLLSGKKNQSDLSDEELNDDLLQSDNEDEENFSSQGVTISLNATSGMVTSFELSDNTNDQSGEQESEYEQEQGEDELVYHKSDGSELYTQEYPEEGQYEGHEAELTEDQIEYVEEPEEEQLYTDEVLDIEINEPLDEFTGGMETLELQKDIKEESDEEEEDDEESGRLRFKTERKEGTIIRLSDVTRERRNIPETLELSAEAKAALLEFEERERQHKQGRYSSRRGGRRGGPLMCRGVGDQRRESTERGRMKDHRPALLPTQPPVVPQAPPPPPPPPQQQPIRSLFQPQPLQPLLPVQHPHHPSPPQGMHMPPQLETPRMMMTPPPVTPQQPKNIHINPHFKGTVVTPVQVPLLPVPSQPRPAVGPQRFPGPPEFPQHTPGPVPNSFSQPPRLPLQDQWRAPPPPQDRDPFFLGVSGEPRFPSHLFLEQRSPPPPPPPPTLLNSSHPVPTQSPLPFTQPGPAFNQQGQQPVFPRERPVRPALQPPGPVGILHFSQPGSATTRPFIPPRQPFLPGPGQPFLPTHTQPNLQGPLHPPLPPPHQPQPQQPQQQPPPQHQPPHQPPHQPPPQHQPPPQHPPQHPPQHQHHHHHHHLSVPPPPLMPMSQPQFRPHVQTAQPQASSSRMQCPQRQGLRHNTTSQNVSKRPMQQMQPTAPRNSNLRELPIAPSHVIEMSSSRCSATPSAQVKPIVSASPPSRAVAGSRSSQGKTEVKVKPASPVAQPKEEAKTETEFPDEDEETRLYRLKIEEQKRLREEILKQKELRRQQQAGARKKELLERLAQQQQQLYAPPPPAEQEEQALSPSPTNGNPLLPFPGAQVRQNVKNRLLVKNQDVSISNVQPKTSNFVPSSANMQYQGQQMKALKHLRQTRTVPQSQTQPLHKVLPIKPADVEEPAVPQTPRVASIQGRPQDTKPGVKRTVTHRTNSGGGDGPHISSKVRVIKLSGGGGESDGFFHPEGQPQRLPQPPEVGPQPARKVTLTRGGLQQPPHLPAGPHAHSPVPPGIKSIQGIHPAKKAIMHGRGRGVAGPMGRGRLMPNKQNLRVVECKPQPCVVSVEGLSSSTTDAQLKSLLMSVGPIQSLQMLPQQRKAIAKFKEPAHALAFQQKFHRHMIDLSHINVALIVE
UniProt P11233: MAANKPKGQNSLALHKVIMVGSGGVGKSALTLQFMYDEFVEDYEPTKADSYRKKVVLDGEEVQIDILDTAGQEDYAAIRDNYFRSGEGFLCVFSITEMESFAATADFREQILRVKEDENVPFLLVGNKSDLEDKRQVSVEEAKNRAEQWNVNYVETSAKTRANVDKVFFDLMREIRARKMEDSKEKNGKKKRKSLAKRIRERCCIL
UniProt P51151: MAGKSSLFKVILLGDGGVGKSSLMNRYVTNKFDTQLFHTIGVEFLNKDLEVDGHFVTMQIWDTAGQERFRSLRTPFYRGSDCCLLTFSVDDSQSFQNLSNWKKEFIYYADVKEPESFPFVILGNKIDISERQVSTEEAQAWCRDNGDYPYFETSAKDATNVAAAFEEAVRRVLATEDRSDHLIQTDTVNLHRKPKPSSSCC
UniProt Q8TBN0: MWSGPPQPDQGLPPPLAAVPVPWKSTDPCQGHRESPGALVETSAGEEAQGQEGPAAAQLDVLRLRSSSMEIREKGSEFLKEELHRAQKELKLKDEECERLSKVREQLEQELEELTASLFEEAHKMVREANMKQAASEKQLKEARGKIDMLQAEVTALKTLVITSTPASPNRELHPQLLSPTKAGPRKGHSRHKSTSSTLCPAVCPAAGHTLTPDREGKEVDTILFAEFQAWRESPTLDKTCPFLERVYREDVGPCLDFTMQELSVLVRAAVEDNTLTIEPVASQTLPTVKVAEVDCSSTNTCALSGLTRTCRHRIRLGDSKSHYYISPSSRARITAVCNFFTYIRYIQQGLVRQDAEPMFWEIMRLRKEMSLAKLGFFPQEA
UniProt P54136: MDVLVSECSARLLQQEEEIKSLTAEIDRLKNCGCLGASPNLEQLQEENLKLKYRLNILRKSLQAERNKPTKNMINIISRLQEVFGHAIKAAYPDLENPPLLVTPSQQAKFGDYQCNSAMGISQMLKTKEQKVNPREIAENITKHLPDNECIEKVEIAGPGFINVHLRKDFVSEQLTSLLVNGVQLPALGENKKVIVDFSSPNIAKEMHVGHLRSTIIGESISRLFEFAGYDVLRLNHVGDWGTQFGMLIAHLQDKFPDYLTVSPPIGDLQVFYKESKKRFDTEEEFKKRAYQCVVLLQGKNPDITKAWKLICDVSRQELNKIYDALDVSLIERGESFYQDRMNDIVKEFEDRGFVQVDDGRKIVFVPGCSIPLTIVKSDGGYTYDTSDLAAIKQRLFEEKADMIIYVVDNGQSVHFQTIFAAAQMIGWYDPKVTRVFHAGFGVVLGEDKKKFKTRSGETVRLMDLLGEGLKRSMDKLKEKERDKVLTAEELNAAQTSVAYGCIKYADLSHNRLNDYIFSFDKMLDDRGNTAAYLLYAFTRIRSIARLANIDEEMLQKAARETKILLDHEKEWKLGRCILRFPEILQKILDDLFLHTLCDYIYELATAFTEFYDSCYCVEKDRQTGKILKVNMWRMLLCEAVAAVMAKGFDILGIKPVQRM
UniProt P49756, whole entry, looked up: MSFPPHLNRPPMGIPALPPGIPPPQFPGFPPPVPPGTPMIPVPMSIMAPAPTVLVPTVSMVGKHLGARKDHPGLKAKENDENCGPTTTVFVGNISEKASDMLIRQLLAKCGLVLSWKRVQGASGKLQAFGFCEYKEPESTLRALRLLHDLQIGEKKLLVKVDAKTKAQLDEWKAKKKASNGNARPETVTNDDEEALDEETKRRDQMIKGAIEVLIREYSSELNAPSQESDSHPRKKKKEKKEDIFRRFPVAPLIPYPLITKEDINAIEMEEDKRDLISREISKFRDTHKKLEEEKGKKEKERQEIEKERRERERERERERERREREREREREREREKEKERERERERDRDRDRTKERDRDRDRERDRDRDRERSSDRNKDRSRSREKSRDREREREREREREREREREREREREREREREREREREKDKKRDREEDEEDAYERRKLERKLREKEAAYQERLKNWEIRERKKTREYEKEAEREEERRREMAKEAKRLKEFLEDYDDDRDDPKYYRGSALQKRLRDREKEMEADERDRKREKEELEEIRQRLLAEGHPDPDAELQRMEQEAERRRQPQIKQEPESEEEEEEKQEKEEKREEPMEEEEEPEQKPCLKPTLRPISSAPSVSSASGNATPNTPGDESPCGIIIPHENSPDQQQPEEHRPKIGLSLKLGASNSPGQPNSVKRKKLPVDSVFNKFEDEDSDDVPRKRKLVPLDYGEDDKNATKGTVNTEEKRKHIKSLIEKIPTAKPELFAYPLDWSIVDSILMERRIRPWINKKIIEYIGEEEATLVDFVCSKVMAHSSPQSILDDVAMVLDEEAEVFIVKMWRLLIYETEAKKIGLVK
UniProt Q9UKM9: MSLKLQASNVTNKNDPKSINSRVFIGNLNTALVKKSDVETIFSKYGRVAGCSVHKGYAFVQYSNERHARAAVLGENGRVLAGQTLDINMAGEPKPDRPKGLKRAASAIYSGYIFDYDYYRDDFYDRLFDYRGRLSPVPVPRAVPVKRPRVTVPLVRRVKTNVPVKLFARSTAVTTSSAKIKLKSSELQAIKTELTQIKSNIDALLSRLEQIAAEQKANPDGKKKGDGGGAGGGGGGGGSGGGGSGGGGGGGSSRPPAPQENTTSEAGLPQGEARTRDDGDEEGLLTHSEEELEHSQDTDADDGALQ
UniProt Q96D70: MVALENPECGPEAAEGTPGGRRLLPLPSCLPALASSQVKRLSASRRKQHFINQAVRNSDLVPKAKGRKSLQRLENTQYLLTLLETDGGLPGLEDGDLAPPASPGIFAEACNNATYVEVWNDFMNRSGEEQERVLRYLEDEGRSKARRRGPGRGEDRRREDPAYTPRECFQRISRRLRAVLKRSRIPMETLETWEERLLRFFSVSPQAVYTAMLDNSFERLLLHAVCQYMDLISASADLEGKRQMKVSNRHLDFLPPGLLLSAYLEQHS
UniProt Q92930: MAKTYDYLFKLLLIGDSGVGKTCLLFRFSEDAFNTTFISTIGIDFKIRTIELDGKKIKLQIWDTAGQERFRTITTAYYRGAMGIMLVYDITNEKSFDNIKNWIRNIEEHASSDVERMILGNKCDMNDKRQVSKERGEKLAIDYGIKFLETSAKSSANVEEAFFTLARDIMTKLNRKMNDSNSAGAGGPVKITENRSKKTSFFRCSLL
UniProt Q9UI14, whole entry, looked up: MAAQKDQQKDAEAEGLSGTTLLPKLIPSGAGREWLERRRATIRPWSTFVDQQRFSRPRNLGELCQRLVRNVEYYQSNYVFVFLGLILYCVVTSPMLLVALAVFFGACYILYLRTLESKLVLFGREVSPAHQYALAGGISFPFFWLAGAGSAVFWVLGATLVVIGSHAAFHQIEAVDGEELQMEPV
UniProt P51148: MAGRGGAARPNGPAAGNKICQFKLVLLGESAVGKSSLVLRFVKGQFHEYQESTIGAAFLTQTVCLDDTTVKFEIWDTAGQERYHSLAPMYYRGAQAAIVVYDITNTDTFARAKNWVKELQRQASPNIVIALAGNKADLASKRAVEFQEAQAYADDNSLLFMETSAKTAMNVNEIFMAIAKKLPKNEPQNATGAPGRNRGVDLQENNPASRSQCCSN

Some of the results follow.

Compound in the first test: CNc1nc(-c2ccc3c(N)n[nH]c3c2)cc(N2C[C@@H](C(=O)NC3CCCCC3)CC[C@H]2C)n1
Kind of test: log2 fold change, soluble protein after heating vs DMSO (PISA); higher = thermal stabilisation; K562 cells, 10 uM, 30 min; active = over 0.2 and 3.5 SD of the protein, either way, in both replicates (recomputed). The procedure, abridged:
(§1)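 K562 cells at 2×10^6 cells/mL were given 10 μM compound for 30 min. Aliquots then went through 3 min of heating across 48°C-58°C, were pooled, and were extracted in PBS with 0.5% NP-40 at 4°C, and the supernatant after 21,000xg for 90 min was quantified by TMTpro 16plex LC-MS/MS with channel sums equalised. Thermal stability relative to control samples, from duplicates, is given as log2 fold change.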
With RAB11FIP1 (UniProt Q6WKZ4), the log2 fold change is inactive: -0.043.
On the same count and under the same terms, then RB1CC1 (UniProt Q8TDY2), with inactive: 0.049.
Turning to RAB33B (UniProt Q9H082), the log2 fold change is inactive: -0.031.
The same measure, in the same setting: then RANBP2 (UniProt P49792), with inactive: -0.016.
Consider RBM26 isoform 2 (UniProt Q5T8P6), for which the log2 fold change is inactive: 0.025.
For RBM33 (UniProt Q96EV2), the log2 fold change is inactive: -0.044.
The same measure, in the same setting: then RALA (UniProt P11233), with inactive: 0.086; and RAB9A (UniProt P51151), with inactive: -0.02; and RAD50, A0A494C0Y7, with inactive: 0.198.
On the same count and under the same terms, then RARS2 (UniProt Q5T160), with inactive: -0.042; and RAD51D (UniProt O75771), with inactive: 0.098.
With RAB3IL1 (UniProt Q8TBN0), the log2 fold change was inactive: 0.001.
The same measure, in the same setting: then RAC1 (UniProt P63000), with inactive: 0.043; and RBM22 (UniProt Q9NW64), with inactive: -0.155.
Consider RARS (UniProt P54136), for which the log2 fold change is inactive: 0.138.
Regarding RABGAP1L isoform 3 (UniProt Q5R372), the log2 fold change was inactive: -0.005.
On the same count and under the same terms, then RAB3GAP2 (UniProt Q9H2M9), with inactive: 0.039; and RANBP6 (UniProt O60518), with inactive: -0.151.
On to RBM27 (UniProt Q9P2N5), for which the log2 fold change was inactive: 0.033.
On the same count and under the same terms, then RAC3 (UniProt P60763), with inactive: 0.085; and RBM25 (UniProt P49756), with inactive: -0.091.
Same read-out and setting: then RBM14 (UniProt Q96PK6), with inactive: -0.063.
Regarding RAF1 isoform 2 (UniProt P04049), the log2 fold change was inactive: 0.176.
For RBBP7 (UniProt Q16576), the log2 fold change was inactive: -0.021.
As to RALY (UniProt Q9UKM9), the log2 fold change is inactive: 0.066.
On the same count and under the same terms, then R3HDM4 (UniProt Q96D70), with inactive: 0.057; and RAB8B (UniProt Q92930), with inactive: 0.056.
With RABGAP1L isoform 5 (UniProt Q5R372), the log2 fold change is inactive: -0.071.
For the target RAVER1 (UniProt E9PAU2), the log2 fold change is inactive: -0.087.
Still for that read-out and setting: the value for RABAC1 (UniProt Q9UI14) was inactive: -0.089.
On to RAB5C isoform 2 (UniProt P51148), for which the log2 fold change is inactive: 0.003.
On the same count and under the same terms, then RAD51 (UniProt Q06609), with inactive: -0.011; and RAD50 isoform 2 (UniProt Q92878), with inactive: 0.006.

Compound in a further test: COC(=O)N[C@@H](C)CNc1nccc(-c2cn(C(C)C)nc2-c2cc(Cl)cc(NS(C)(=O)=O)c2F)n1 [encorafenib]
The test is described as above. The procedure, abridged:
as §1
Turning to RAB11FIP1 (UniProt Q6WKZ4), the log2 fold change is inactive: 0.052.
As to RB1CC1 (UniProt Q8TDY2), the log2 fold change is inactive: -0.104.
Consider RAB33B (UniProt Q9H082), for which the log2 fold change is inactive: 0.
The same measure, in the same setting: the value for RANBP2 (UniProt P49792) was inactive: -0.045; that for RBM26 isoform 2 (UniProt Q5T8P6) was inactive: 0.03; that for RBM33 (UniProt Q96EV2) was inactive: 0.02.
As to RALA (UniProt P11233), the log2 fold change was inactive: 0.033.
Still for that read-out and setting: then RAB9A (UniProt P51151), with inactive: -0.012.
For RAD50, A0A494C0Y7, the log2 fold change is inactive: 0.15.
As for RARS2 (UniProt Q5T160), the log2 fold change is inactive: 0.026.
Same read-out and setting: then RAD51D (UniProt O75771), with inactive: 0.033; and RAB3IL1 (UniProt Q8TBN0), with inactive: -0.03.
Still for that read-out and setting: then RAC1 (UniProt P63000), with inactive: -0.064; and RBM22 (UniProt Q9NW64), with inactive: 0.036; and RARS (UniProt P54136), with inactive: 0.217.
The same measure, in the same setting: the value for RABGAP1L isoform 3 (UniProt Q5R372) was inactive: 0.078.
Take RAB3GAP2 (UniProt Q9H2M9): the log2 fold change was inactive: 0.189.
On to RANBP6 (UniProt O60518), for which the log2 fold change was inactive: 0.112.
On the same count and under the same terms, the value for RBM27 (UniProt Q9P2N5) was inactive: -0.011.
On to RAC3 (UniProt P60763), for which the log2 fold change was inactive: -0.07.
As for RBM25 (UniProt P49756), the log2 fold change was inactive: -0.094.
Regarding RBM14 (UniProt Q96PK6), the log2 fold change was inactive: -0.045.
On to RAF1 isoform 2 (UniProt P04049), for which the log2 fold change is active: 0.737.
The same measure, in the same setting: then RBBP7 (UniProt Q16576), with inactive: -0.007; and RALY (UniProt Q9UKM9), with inactive: 0.073; and R3HDM4 (UniProt Q96D70), with inactive: 0.065.
For the target RAB8B (UniProt Q92930), the log2 fold change was inactive: -0.062.
Take RAVER1 (UniProt E9PAU2): the log2 fold change is inactive: 0.105.
On to RABAC1 (UniProt Q9UI14), for which the log2 fold change was inactive: -0.049.
The same measure, in the same setting: then RAB5C isoform 2 (UniProt P51148), with inactive: -0.039.
Regarding RAD51 (UniProt Q06609), the log2 fold change was inactive: 0.005.
Same read-out and setting: then RAD50 isoform 2 (UniProt Q92878), with inactive: 0.008.

Compound in a further test: COC(=O)[C@H](CCSC)NC(=O)C1=C(C=C(C=C1)NC[C@H](CS)N)C2=CC=CC=C2
Described as above. The procedure, abridged: as §1
RAB11FIP1 (UniProt Q6WKZ4): the log2 fold change was inactive: -0.019.
Regarding RB1CC1 (UniProt Q8TDY2), the log2 fold change is inactive: -0.025.
On the same count and under the same terms, the value for RAB33B (UniProt Q9H082) was inactive: 0.032; that for RANBP2 (UniProt P49792) was inactive: -0.03.
Consider RBM26 isoform 2 (UniProt Q5T8P6), for which the log2 fold change is inactive: -0.032.
Still for that read-out and setting: the value for RBM33 (UniProt Q96EV2) was inactive: 0.03; that for RALA (UniProt P11233) was inactive: 0.004; that for RAB9A (UniProt P51151) was inactive: -0.013.
RAD50, A0A494C0Y7: the log2 fold change is inactive: -0.055.
Regarding RARS2 (UniProt Q5T160), the log2 fold change was inactive: -0.003.
Same read-out and setting: then RAD51D (UniProt O75771), with inactive: -0.033; and RAB3IL1 (UniProt Q8TBN0), with inactive: -0.022.
For the target RAC1 (UniProt P63000), the log2 fold change was inactive: -0.037.
On to RBM22 (UniProt Q9NW64), for which the log2 fold change is inactive: 0.012.
Same read-out and setting: the value for RARS (UniProt P54136) was inactive: -0.024; that for RABGAP1L isoform 3 (UniProt Q5R372) was inactive: 0.035.
The same measure, in the same setting: the value for RAB3GAP2 (UniProt Q9H2M9) was inactive: -0.089; that for RBM27 (UniProt Q9P2N5) was inactive: -0.042; that for RAC3 (UniProt P60763) was inactive: 0.027.
Turning to RBM25 (UniProt P49756), the log2 fold change is inactive: 0.014.
The same measure, in the same setting: then RBM14 (UniProt Q96PK6), with inactive: 0.18; and RAF1 isoform 2 (UniProt P04049), with inactive: -0.069; and RALY (UniProt Q9UKM9), with inactive: -0.021.
Still for that read-out and setting: the value for R3HDM4 (UniProt Q96D70) was inactive: 0.035; that for RAB8B (UniProt Q92930) was inactive: -0.06; that for RAVER1 (UniProt E9PAU2) was inactive: -0.065.
Same read-out and setting: the value for RABAC1 (UniProt Q9UI14) was inactive: -0.02; that for RAB5C isoform 2 (UniProt P51148) was inactive: 0.017.
As to RAD51 (UniProt Q06609), the log2 fold change was inactive: -0.041.
With RAD50 isoform 2 (UniProt Q92878), the log2 fold change is inactive: -0.019.
